In the supplement of paper PMC6078165:

System: BT20
Experiment: relative JC-1 red fluorescence (viability) vs pre-drug, coculture with fibroblast (fraction); higher = more viable cancer cells
Experimental: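 JC-1 labelled TNBC cells cocultured 1:1 (1,500 cells each) with CellTrace Violet stained primary or stromal fibroblasts in 384-well plates in FluoroBrite medium, treated with one of 42 anticancer drugs at 0.1, 1, 10 or 100 uM. JC-1 red fluorescence (mitochondrial integrity in cancer cells only) was read by plate reader every 8 h for 72 h. Values are normalised to each well's pre-drug value. The stock of one drug was tenfold lower, so its dose labels may be too high.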

O=C(O)CCCc1ccc(N(CCCl)CCCl)cc1 [Chlorambucil]
relative JC-1 red fluorescence
Details | 8 h | 16 h | 24 h | 32 h | 40 h | 48 h | 56 h | 64 h | 72 h
10 µM, coculture fibroblast: C12385 | 0.874 | 0.821 | 0.773 | 0.715 | 0.656 | 0.628 | 0.587 | 0.558 | 0.537
10 µM, coculture fibroblast: H6013 | 0.937 | 0.892 | 0.859 | 0.829 | 0.794 | 0.772 | 0.771 | 0.748 | 0.734
10 µM, coculture fibroblast: H6019 | 0.8671 | 0.826 | 0.824 | 0.78 | 0.733 | 0.706 | 0.676 | 0.65 | 0.623
10 µM, coculture fibroblast: H6076 | 0.9796 | 0.931 | 0.86 | 0.849 | 0.838 | 0.818 | 0.826 | 0.836 | 0.825
10 µM, coculture fibroblast: H6231 | 0.749 | 0.889 | 0.782 | 0.707 | 0.662 | 0.605 | 0.569 | 0.546 | 0.514
10 µM, coculture fibroblast: HADF | 0.959 | 0.902 | 0.84 | 0.811 | 0.775 | 0.729 | 0.708 | 0.679 | 0.6477
10 µM, coculture fibroblast: HCFa | 0.9283 | 0.86 | 0.799 | 0.75 | 0.707 | 0.663 | 0.634 | 0.607 | 0.572
10 µM, coculture fibroblast: HCPF | 0.981 | 0.909 | 0.846 | 0.806 | 0.782 | 0.745 | 0.718 | 0.71 | 0.675
10 µM, coculture fibroblast: HHSteC | 0.923 | 0.897 | 0.875 | 0.814 | 0.772 | 0.744 | 0.717 | 0.697 | 0.672
10 µM, coculture fibroblast: HMF | 0.9433 | 0.868 | 0.7887 | 0.746 | 0.714 | 0.676 | 0.656 | 0.623 | 0.602
10 µM, coculture fibroblast: HPFa | 0.9198 | 0.854 | 0.835 | 0.754 | 0.718 | 0.678 | 0.65 | 0.622 | 0.58
10 µM, coculture fibroblast: HUF | 0.876 | 0.7899 | 0.743 | 0.663 | 0.615 | 0.568 | 0.542 | 0.524 | 0.503
10 µM, coculture fibroblast: Hs5 | 0.849 | 0.95 | 0.872 | 0.8227 | 0.77539 | 0.741 | 0.708 | 0.679 | 0.657
10 µM, coculture fibroblast: Hs27A | 0.838 | 0.925 | 0.895 | 0.9 | 0.846 | 0.819 | 0.7933 | 0.76 | 0.709
10 µM, coculture fibroblast: Hs343T | 0.884 | 0.902 | 0.78 | 0.713 | 0.655 | 0.599 | 0.547 | 0.52 | 0.481
10 µM, coculture fibroblast: WS1 | 0.856 | 0.8022 | 0.748 | 0.682 | 0.619 | 0.585 | 0.543 | 0.509 | 0.482
100 µM, coculture fibroblast: C12385 | 0.883 | 0.789 | 0.7062 | 0.643 | 0.582 | 0.544 | 0.506 | 0.475 | 0.444
100 µM, coculture fibroblast: H6013 | 0.964 | 0.89 | 0.877 | 0.835 | 0.792 | 0.775 | 0.769 | 0.746 | 0.728
100 µM, coculture fibroblast: H6019 | 0.879 | 0.808 | 0.75381 | 0.6837 | 0.6258 | 0.591 | 0.547 | 0.516 | 0.489
100 µM, coculture fibroblast: H6076 | 0.886 | 0.883 | 0.772 | 0.734 | 0.69 | 0.66 | 0.642 | 0.633 | 0.61
100 µM, coculture fibroblast: H6231 | 0.794 | 0.923 | 0.806 | 0.737 | 0.6737 | 0.609 | 0.565 | 0.532 | 0.497
100 µM, coculture fibroblast: HADF | 0.808 | 0.925 | 0.889 | 0.873 | 0.862 | 0.84 | 0.827 | 0.804 | 0.782
100 µM, coculture fibroblast: HCFa | 0.947 | 0.862 | 0.815 | 0.765 | 0.715 | 0.682 | 0.646 | 0.634 | 0.597
100 µM, coculture fibroblast: HCPF | 0.888 | 0.894 | 0.78 | 0.725 | 0.664 | 0.61 | 0.56 | 0.542 | 0.499
100 µM, coculture fibroblast: HHSteC | 0.925 | 0.826 | 0.802 | 0.723 | 0.657 | 0.621 | 0.584 | 0.563 | 0.529
100 µM, coculture fibroblast: HMF | 0.955 | 0.916 | 0.754 | 0.692 | 0.629 | 0.581 | 0.535 | 0.494 | 0.4501
100 µM, coculture fibroblast: HPFa | 0.854 | 0.917 | 0.919 | 0.836 | 0.812 | 0.762 | 0.743 | 0.717 | 0.675
100 µM, coculture fibroblast: HUF | 0.938 | 0.855 | 0.832 | 0.764 | 0.721 | 0.681 | 0.66 | 0.651 | 0.636
100 µM, coculture fibroblast: Hs5 | 0.795 | 0.912 | 0.8169 | 0.76 | 0.719 | 0.68 | 0.647 | 0.622 | 0.606
100 µM, coculture fibroblast: Hs27A | 0.826 | 0.853 | 0.8865 | 0.894 | 0.865 | 0.858 | 0.851 | 0.821 | 0.79
100 µM, coculture fibroblast: Hs343T | 0.797 | 0.903 | 0.769 | 0.697 | 0.641 | 0.595 | 0.549 | 0.517 | 0.48
100 µM, coculture fibroblast: WS1 | 0.889 | 0.825 | 0.756 | 0.691 | 0.625 | 0.597 | 0.561 | 0.532 | 0.511

Values are relative to the signal before dosing, not to a vehicle control; the signal also falls without drug.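 Fibroblast labels denote human fibroblasts, mainly primary ones from uterus (C12385, HUF), lung (H6013), bone (Hs27A), adrenal (HADF) and skin (WS1), plus mammary HMF and breast cancer-associated Hs343T. Cancer cells are basal-like or mesenchymal-like triple-negative breast cancer lines. A hit is a response shift exceeding 3x replicate standard deviation. The tissue of the other fibroblasts is not given here.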
